No constants are given. Whether binding was seen depends on the method and setting. In cells and extracts the contact can be indirect. Some binding calls cover weakened binding; strength is not graded here. Tags and fused reporters may be left off the sequences shown.
Assays:
GFP-CEP97 = target: T1, GFP-CEP97 (UniProt Q8IW35); assay: co-IP; HA-tagged membrane trafficking regulators with GFP-CP110 or GFP-CEP97, transiently transfected 293T; lysis in 20 mM Tris-HCl pH 7.5, 150 mM KCl, 1 mM EDTA, 0.5% NP-40, 10% glycerol; which tag was precipitated is not stated for these panels (Fig. 6c, d); immunoblot
T1 sequence: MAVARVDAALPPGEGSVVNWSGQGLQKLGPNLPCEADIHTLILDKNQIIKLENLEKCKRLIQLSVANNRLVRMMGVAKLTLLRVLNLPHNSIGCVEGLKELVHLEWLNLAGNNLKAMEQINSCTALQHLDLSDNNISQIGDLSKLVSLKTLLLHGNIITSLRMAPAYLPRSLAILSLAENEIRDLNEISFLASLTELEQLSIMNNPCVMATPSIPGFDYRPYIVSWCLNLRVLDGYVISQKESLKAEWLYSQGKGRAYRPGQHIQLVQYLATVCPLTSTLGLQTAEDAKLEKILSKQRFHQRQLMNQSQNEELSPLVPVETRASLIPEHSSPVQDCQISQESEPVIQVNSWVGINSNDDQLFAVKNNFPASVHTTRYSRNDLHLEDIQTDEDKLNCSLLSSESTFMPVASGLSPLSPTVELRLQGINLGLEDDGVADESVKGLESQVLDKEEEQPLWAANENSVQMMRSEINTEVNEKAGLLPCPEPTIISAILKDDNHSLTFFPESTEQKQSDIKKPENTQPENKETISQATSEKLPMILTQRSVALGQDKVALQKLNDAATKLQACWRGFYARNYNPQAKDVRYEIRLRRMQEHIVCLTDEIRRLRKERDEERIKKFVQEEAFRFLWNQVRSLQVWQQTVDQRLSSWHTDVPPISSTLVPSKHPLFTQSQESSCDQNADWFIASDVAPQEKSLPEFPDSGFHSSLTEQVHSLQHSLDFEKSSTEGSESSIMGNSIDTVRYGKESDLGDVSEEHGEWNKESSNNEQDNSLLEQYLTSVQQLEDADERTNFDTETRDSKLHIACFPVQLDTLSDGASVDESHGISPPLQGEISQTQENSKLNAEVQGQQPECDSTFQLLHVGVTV

Chains of the proteins cited; added tags and fusions are not shown.
UniProt O43303: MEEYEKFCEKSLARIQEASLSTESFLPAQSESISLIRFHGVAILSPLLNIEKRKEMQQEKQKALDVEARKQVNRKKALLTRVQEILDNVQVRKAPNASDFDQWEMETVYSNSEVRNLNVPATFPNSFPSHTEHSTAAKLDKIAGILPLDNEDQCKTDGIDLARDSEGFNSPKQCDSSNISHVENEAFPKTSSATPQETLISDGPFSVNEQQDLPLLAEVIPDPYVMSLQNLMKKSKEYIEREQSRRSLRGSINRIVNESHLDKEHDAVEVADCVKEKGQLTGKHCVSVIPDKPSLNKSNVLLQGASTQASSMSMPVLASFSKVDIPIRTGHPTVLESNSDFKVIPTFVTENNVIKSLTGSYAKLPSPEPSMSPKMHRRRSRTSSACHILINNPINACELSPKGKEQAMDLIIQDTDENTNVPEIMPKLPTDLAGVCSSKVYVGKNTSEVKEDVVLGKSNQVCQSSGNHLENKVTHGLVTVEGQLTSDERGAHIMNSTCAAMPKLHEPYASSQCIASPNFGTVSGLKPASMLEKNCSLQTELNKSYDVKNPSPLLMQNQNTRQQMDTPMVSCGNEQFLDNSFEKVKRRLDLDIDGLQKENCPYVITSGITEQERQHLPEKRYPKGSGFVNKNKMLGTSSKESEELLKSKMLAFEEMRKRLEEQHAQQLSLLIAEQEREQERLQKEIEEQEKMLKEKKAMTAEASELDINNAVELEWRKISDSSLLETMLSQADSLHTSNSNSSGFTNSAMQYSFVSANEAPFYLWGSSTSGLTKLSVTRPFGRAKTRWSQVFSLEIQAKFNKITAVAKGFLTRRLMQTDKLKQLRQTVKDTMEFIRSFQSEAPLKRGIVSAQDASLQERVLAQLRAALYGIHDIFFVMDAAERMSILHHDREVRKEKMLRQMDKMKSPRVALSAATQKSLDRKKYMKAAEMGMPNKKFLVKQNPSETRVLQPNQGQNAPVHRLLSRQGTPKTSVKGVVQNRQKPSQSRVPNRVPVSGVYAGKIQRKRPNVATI

GFP-CP110 = GFP-CP110 (UniProt O43303); assay: as above

- binding (GFP-CEP97): binds
- binding (GFP-CP110): binds
B1: HA-EHD1 (protein, UniProt Q9H4M9 1-534)
chain: MFSWVSKDARRKKEPELFQTVAEGLRQLYAQKLLPLEEHYRFHEFHSPALEDADFDNKPMVLLVGQYSTGKTTFIRHLIEQDFPGMRIGPEPTTDSFIAVMHGPTEGVVPGNALVVDPRRPFRKLNAFGNAFLNRFMCAQLPNPVLDSISIIDTPGILSGEKQRISRGYDFAAVLEWFAERVDRIILLFDAHKLDISDEFSEVIKALKNHEDKIRVVLNKADQIETQQLMRVYGALMWSLGKIINTPEVVRVYIGSFWSHPLLIPDNRKLFEAEEQDLFKDIQSLPRNAALRKLNDLIKRARLAKVHAYIISSLKKEMPNVFGKESKKKELVNNLGEIYQKIEREHQISPGDFPSLRKMQELLQTQDFSKFQALKPKLLDTVDDMLANDIARLMVMVRQEESLMPSQVVKGGAFDGTMNGPFGHGYGEGAGEGIDDVEWVVGKDKPTYDEIFYTLSPVNGKITGANAKKEMVKSKLPNTVLGKIWKLADVDKDGLLDDEEFALANHLIKVKLEGHELPADLPPHLVPPSKRRHE

— publication PMC13408954
